Measured values published in US20230358677A1, “Reversible Excited-State Photoacids and Photobases as Dynamic Fluorescence Sensors of Protonic Species” (California Institute of Technology, priority 2022, published 2023).

Assay: Time-resolved photoluminescence spectroscopy (excited-state lifetime)
Type: physicochemical
Settings: for excited-state lifetime τo: near-neutral pH (NS—NH2 pH 7.32, APTS pH 6.3, EDANS pH 6.2), aqueous

Nc1cc(S(=O)(=O)[O-])c2ccc3c(S(=O)(=O)[O-])cc(S(=O)(=O)[O-])c4ccc1c2c43.[Na+].[Na+].[Na+] [APTS, 8-aminopyrene-1,3,6-trisulfonic acid trisodium salt]
excited-state lifetime τo: 3.88 ns

NCCNc1cccc2c(S(=O)(=O)[O-])cccc12.[Na+] [EDANS, 5-((2-aminoethyl)amino)naphthalene-1-sulfonic acid sodium salt]
excited-state lifetime τo: 8.82 ns

Nc1cccc2c(S(=O)(=O)[O-])cccc12.[Na+] [NS—NH2, 5-aminonaphthalene-1-sulfonic acid sodium salt]
excited-state lifetime (alkaline solution, pH 12.18): 2.57 ns
